Measurements reported in PubChem BioAssay AID1259424 (University of Nebraska Medical Center, 2018)
Shown is one part, drawn at random, of about 14,000 reagents. 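Higher correlation or smaller distance means closer resemblance to KSR1 loss; control wells, including KSR1 knockdowns, recur on many plates.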 The numbers tell different reagents against one gene apart. Further read-outs or replicates are left out here. The record does not give: the time to read-out.

- Assay: 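Seek colon cancer survival genes behaving like KSR1, using a six-gene signature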 (primary screen)
- Cell system: human HCT116 colon cancer cells
- Reagent: siRNA pool against human genes, 50 nM
- Read-out: 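Log2 levels of six mRNAs (branched-DNA multiplex), adjusted by two reference genes and the non-targeting median, then scored against the average KSR1 knockdown pattern as Pearson r and euclidean distance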
- Scale: mean correlation with KSR1 profile: higher = expression change more like KSR1 knockdown; mean distance from KSR1 profile: higher = expression change less like KSR1 knockdown

target	reagent no.	mean correlation with KSR1 profile	mean distance from KSR1 profile
NAT14	1	0.486	1.12
CD1A	1	-0.193	2.92
NFYB	1	0.0672	3.03
MARCHF8	1	-0.443	2.43
RHOBTB2	1	0.833	0.721
PRKCB	1	0.197	2.61
RPH3AL	1	-0.263	4.08
ITIH3	1	0.256	1.4
C1GALT1	1	-0.197	3.35
USH2A	1	0.0779	1.35
ROBO1	1	-0.939	1.67
ESR2	1	-0.111	2.31
GPR35	1	-0.419	2.91
UXS1	1	0.106	1.85
NASP	1	-0.176	1.25
C19orf73	1	0.188	3.94
DERL1	1	-0.446	3.57
SCN9A	1	0.769	0.6
POMP	1	-0.23	6.86
ACHE	1	-0.505	2.13
PLPPR2	1	-0.42	3.11
HAS2	1	0.79	0.815
NLRP8	1	-0.502	2.3
HMGN1	1	0.0798	1.89
CMSS1	1	0.773	1.38
CEP85	1	-0.152	1.74
ARMC8	1	-0.164	2.53
CYP2D6	1	-0.123	3.72
RAP2C	1	-0.202	1.32
PCDHGA5	1	0.156	1.49
GLA	1	0.477	2.51
SERTAD1	1	-0.338	2.4
SINHCAF	1	-0.57	1.45
UBTF	1	0.763	1.26
CMIP	1	0.181	2.26
BRD7	1	-0.538	1.99
MRPL16	1	-0.653	6.47
PNPLA3	1	0.581	1.43
CNOT8	1	0.0256	2.83
H4C2	1	-0.164	1.55
RAP1GAP2	1	0.58	0.786
CDH17	1	-0.419	1.36
OBSCN	1	0.353	1.97
OBSCN	2	-0.0475	3.48
OBSCN	3	0.061	1.56
CRISPLD1	1	0.604	2.19
PCGF2	1	-0.079	1.69
RRAD	1	0.471	2.45
PRTFDC1	1	-0.49	2.14
TGM5	1	0.143	1.8
TBC1D10A	1	0.566	2.27
CHST6	1	0.48	2.13
EIF3F	1	-0.0122	4.68
MCRIP2	1	0.516	1.57
POU6F1	1	-0.629	1.97
IGDCC3	1	-0.378	6.16
CLN8	1	-0.361	1.91
SLC28A3	1	-0.324	3.87
SMO	1	0.432	3.14
MAGEB3	1	-0.263	1.87
CENPK	1	-0.431	2.68
DHX38	1	-0.568	2.61
SCOC	1	-0.47	2.08

6 entries from above, reformatted:
ESR2
- mean correlation with KSR1 profile: -0.111
- mean distance from KSR1 profile: 2.31

GPR35
- mean correlation with KSR1 profile: -0.419
- mean distance from KSR1 profile: 2.91

UXS1
- mean correlation with KSR1 profile: 0.106
- mean distance from KSR1 profile: 1.85

NASP
- mean correlation with KSR1 profile: -0.176
- mean distance from KSR1 profile: 1.25

C19orf73
- mean correlation with KSR1 profile: 0.188
- mean distance from KSR1 profile: 3.94

DERL1
- mean correlation with KSR1 profile: -0.446
- mean distance from KSR1 profile: 3.57
